Results are given in words; binding and its absence hold for the method and conditions named. Binding seen in cells or lysates may run through a third protein. Here binding means that the protein was enriched with, or labelled near, the bait; the list need not be complete. Sequences can lack the tags named with a protein.
T1: Ume6 tagged at the carboxy-terminus with TurboID (TurboID-3xMyc) (Saccharomyces cerevisiae) (UniProt P39001)
T1 sequence: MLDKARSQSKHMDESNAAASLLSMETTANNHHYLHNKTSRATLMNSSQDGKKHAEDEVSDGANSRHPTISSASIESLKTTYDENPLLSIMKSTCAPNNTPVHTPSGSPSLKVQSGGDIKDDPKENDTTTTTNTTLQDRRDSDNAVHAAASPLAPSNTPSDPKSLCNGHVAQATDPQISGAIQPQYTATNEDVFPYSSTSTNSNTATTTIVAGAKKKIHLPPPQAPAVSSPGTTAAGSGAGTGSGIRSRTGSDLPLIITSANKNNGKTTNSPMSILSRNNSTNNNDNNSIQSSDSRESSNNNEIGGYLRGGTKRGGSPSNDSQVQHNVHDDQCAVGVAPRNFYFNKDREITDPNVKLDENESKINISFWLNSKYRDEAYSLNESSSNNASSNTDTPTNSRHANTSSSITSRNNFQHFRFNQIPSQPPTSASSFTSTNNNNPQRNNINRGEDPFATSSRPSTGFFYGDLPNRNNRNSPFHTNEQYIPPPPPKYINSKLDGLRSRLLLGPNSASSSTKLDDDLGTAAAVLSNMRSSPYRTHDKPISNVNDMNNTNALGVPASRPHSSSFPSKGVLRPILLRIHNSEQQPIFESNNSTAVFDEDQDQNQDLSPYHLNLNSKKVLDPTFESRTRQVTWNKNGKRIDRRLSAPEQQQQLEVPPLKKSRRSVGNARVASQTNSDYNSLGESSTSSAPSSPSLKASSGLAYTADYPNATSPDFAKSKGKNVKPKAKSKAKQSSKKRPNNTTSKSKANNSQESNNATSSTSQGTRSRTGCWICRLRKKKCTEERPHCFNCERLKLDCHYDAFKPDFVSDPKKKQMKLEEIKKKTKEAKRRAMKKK

B1: Dep1 (protein, UniProt P31385 1-405)
chain: MSQQTPQESEQTTAKEQDLDQESVLSNIDFNTDLNHNLNLSEYCISSDAGTEKMDSDEEKSLANLPELKYAPKLSSLVKQETLTESLKRPHEDEKEAIDEAKKMKVPGENEDESKEEEKSQELEEAIDSKEKSTDARDEQGDEGDNEEENNEEDNENENEHTAPPALVMPSPIEMEEQRMTALKEITDIEYKFAQLRQKLYDNQLVRLQTELQMCLEGSHPELQVYYSKIAAIRDYKLHRAYQRQKYELSCINTETIATRTFIHQDFHKKVTDLRARLLNRTTQTWYDINKERRDMDIVIPDVNYHVPIKLDNKTLSCITGYASAAQLCYPGEPVAEDLACESIEYRYRANPVDKLEVIVDRMRLNNEISDLEGLRKYFHSFPGAPELNPLRDSEINDDFHQWAQ
B2: Ada1 (protein, UniProt Q12060 1-488)
chain: MSAIQSPAPKPLQPTYPAASPASTNAYMKPGLIGSPAVSNHTEPNNGNNETAEPQGPNQRIDLGAMIEELTSLLGKESWTKYAQIISLFILGKLSRKELSNELELVFSPSAASLEKSNTNHHHSLVRLHNQLLLGIFANSLRENPLGRNGNESSWGFGNGSNNPNNKLKRINKHNSQIEVYKKIVMSLPLNDRNRLKMITKEAGKRGFIFCSVFQARLNNIPKIPIVTNPESLKRVKSNNLKTPLEWSQDIMNGFNVPLASESHSLPDTDSFYLRMVGIAREHGLVGTVDARCVELISLALDQYLKNIIEFTIDTVRYRRKKYSDYYDLNESGLYKSVSEMAADKRDAKIKQLDDDKNEDECADEAKSINNGNNSSKDDIGDISMSSITKAGEAVNEELHENRTISLTNEDIYDSLSIFPNLVEPSGSYYALTNLGLVNDDELVDMKSNIDDLPDFLNEKPTFTPLDERNVGTRHELNWLIKGILTED
B3: Tea1, Ty1 enhancer activator I (protein, UniProt P47988 1-759)
chain: MTAPLWPNKNEKNHTVKRALSTDMTSNILSSTNASSNEENSRSSSAANVRSGTGANTLTNGGSTRKRLACTNCRNRRKKCDLGFPCGNCSRLELVCNVNDEDLRKKRYTNKYVKSLESHIAQLETNLKNLVQKIYPDDEQILNRMMVGDVLSALPDSSQVSINYTDQTPSLPIPATRGTFIIENDKVSQPLSSFNQQTEPSTLNSGIFNTQKQNFEESLDDQLLLRRSLTPQGEKKKKPLVKGSLYPEGPVSYKRKHPVKSDSLLPVSSLTAATDPSTFSDGITAGNSVLVNGELKKRISDLKTTVIVRGLNDDNPNSINNDPRILKSLSNFYKWLYPGYFIFVHRESFLYGFFNHSKNNYEDSSYCSVELIYAMCAVGSRLTPDLQEYSEVYYQRSKKTLLQLVFDEQSTARITTVQALFCLAFYELGKGNNQLGWYFSGLAIRVGYDMGFQLDPKVWYVDDNNLQLTQSELEIRSRIYWGCYIADHFICLMLGRTSTLSVSNSTMPESDELPEVNGTEEFRFIGRHVLQISLPLKNLIILSRLVQIFTSKIFIESEDIARKLKYLNTFNSQVYNWRQSLPEFLQWSKTLIENDDVSTDPTISYFWYCYYIVRLTFNKPFIEDSQESETVVIEIIDDLKTLLDNFGKKFGNYTKGNLYQLYSCLLAINCLKKLKEIRSSEQDSWNAQLDFFNHIFYTQLYPAYDLPKKLQEDTELETEQENQMLNQVGNINYTHDFSLSHEIDDLIRELFGVGTPQKL
B4: Toa1 (protein, UniProt P32773 1-286)
chain: MSNAEASRVYEIIVESVVNEVREDFENAGIDEQTLQDLKNIWQKKLTETKVTTFSWDNQFNEGNINGVQNDLNFNLATPGVNSSEFNIKEENTGNEGLILPNINSNNNIPHSGETNINTNTVEATNNSGATLNTNTSGNTNADVTSQPKIEVKPEIELTINNANITTVENIDDESEKKDDEEKEEDVEKTRKEKEQIEQVKLQAKKEKRSALLDTDEVGSELDDSDDDYLISEGEEDGPDENLMLCLYDKVTRTKARWKCSLKDGVVTINRNDYTFQKAQVEAEWV
B5: Ies4 (protein, UniProt Q08561 1-116)
chain: MSQESSVLSESQEQLANNPKIEDTSPPSANSRDNSKPVLPWDYKNKAIEIKSFSGYKVNFTGWIRRDVREERQRGSEFTASDVKGSDDKATRKKEPADEDPEVKQLEKEGEDGLDS
B6: Ies1 (protein, UniProt P43579 1-692)
chain: MGKRVYDPIHDTFQLREDNSDETKADSPMQSVKSGSQEEASPSSIQSETETVTTKSIPVIHEIEIDDKNDDDSTQSEEENTNILLNFEPSTVPEATGASTATGPVTTNTVRRKPKESNASKYNRHLKKPDGEPFNRKDIQFSFMQELLMDKRQIFTNVLKPLYKNSIVPINIDGDKLSINVTDKEYDARTFVFNDKLTFAQLYVLTIATSIKCSKILRDKLLLDQQVAFSTCVLALLVNIGRLNTTINFYLEMTSQLRTFHSVPVLQLHANDPKLLQDTPRLKSILKNLPWGNEQLSLMETYKKVDQNDGEVDTVNKFNIINMLFSICDNSGLIDKRFLSKYVEVESKAQEQDMVDEQNEVKETEAENEKQESKAAYATTLFDILDYSKYEPKDRSNILIWLLYIHLETNLSQEEVEESVRFFNGLEDGAPAGKFILRCTERSYDTDPEDELEFGANQRIKRREFMSKMEEGRKRERTNVTEVKKPSIGGDKSEEDGEGEDDKSEETVEETRSLLTPTPILESSSPMTLNRKKVTPQLPKVTPAAPTETEEEITSAAIIDKNDLNLTPLKKYNSSATVNKVDKLISLDLNKHVSENGKTQEEFLADLKKSQVPNRLKRRDIGLIKIFNEFEDIPVASVLGIRGKKRKKFKDNLLGFETDFMKNLGASKKVLLNKIERAEIDDEEATAMFKLE
B7: Stb3 (protein, UniProt Q12427 1-513)
chain: MSENQKEVSPPQAISVKSEASSSIFSKPISTSSPAGLAAAQRVTPGKLSTLLLEMGPLAIRHITQTLCLDIPCFKDLSSSKQRRLIMSAMESGDKEKSVVFEKIGWGQWSAKRVDPANFDKELEATNFANAKVKDLISQESQRRKSNNSNSNSGGKVEMPMKVEHNITNIDGATTPPTAVASTTIPVNIKRSKSPLAAANVVYIDENALASEDEDEEFDEDDHHLHYQNKSRNSSNNFGKSSNGDPYSFGRRRSQVVFADSTPENIEHEIIAQKIRPLLRNRRRSSIKPHTPFISKLNTHQDSSYLSPNTTSTTTPSNNNSNSNQAKIDLEKLTATSEPTSRRASRLSVSKESSIRSTLFPNKNYLIVTTNPNSKATSVSTSPKLEEQMNVSSNPIVLSDKEKHRVASQHLNGESSPQLVPHSHHQPHSDTDEEDWESIGAASLRNNSLAPNIDSVASSTNGVVSPKPTNPSFTNSQNGDIEPPLQHDQQKHEQQPRNGEDNSAAFLLMSLKS
B8: Cti6 (protein, UniProt Q08923 1-506)
chain: MESTAIVPKGPVVGSEDMEKAEVIASGSTDIISTTSTATTTAAIGSVQEESVKQEDVPMEGGEGEVEEEEGETRCICGELDTPDDSGFFIQCEQCSSWQHGYCVSITQDNAPDKYWCEQCRPELHQLFTTDTGEARSIYKPVQEKRRQSRRKARSAAASKSHAANEAEKSPRNTSNTDDNVDDIGDEEDEVEDEASAVALAKDGNTRSSRRRRRNSMDDASTDQYSLDPGDSDKKLLDRKRATFMAREEKQYQRMLEKALKESRRTSHQEDPESYENDADIYQGDTDNHNGTTRLQTDVMLTEGKPDSVTNDDMKESLRPSKEQSMEKTNDVEKEASQEKESSTGSAQDTEKTDEPILPLTSISSSEDDSRKASSRGSKRVSKPARKGNRTRRSNTSSDTNQNRRSADIGTDKPVKPRLPPQRTSLNEMRRRVSAILEFISRTQWELSEDQSDREEFVRFVENQHFVEKVDTIYNGYNESLSMMDDLTRELLLWEKKYSNNTNAIQ
B9: Spt5 (protein, UniProt P27692 1-1063)
chain: MSDNSDTNVSMQDHDQQFADPVVVPQSTDTKDENTSDKDTVDSGNVTTTESTERAESTSNIPPLDGEEKEAKSEPQQPEDNAETAATEQVSSSNGPATDDAQATLNTDSSEANEIVKKEEGSDERKRPREEDTKNSDGDTKDEGDNKDEDDDEDDDDDDDDEDDDDEAPTKRRRQERNRFLDIEAEVSDDEDEDEDEEDSELVREGFITHGDDEDDEASAPGARRDDRLHRQLDQDLNKTSEEDAQRLAKELRERYGRSSSKQYRAAAQDGYVPQRFLLPSVDTATIWGVRCRPGKEKELIRKLLKKKFNLDRAMGKKKLKILSIFQRDNYTGRIYIEAPKQSVIEKFCNGVPDIYISQKLLIPVQELPLLLKPNKSDDVALEEGSYVRIKRGIYKGDLAMVDQISENNLEVMLKIVPRLDYGKFDEIDPTTQQRKSRRPTFAHRAPPQLFNPTMALRLDQANLYKRDDRHFTYKNEDYIDGYLYKSFRIQHVETKNIQPTVEELARFGSKEGAVDLTSVSQSIKKAQAAKVTFQPGDRIEVLNGEQRGSKGIVTRTTKDIATIKLNGFTTPLEFPISTLRKIFEPGDHVTVINGEHQGDAGLVLMVEQGQVTFMSTQTSREVTITANNLSKSIDTTATSSEYALHDIVELSAKNVACIIQAGHDIFKVIDETGKVSTITKGSILSKINTARARVSSVDANGNEIKIGDTIVEKVGSRREGQVLYIQTQQIFVVSKKIVENAGVFVVNPSNVEAVASKDNMLSNKMDLSKMNPEIISKMGPPSSKTFQQPIQSRGGREVALGKTVRIRSAGYKGQLGIVKDVNGDKATVELHSKNKHITIDKHKLTYYNREGGEGITYDELVNRRGRVPQARMGPSYVSAPRNMATGGIAAGAAATSSGLSGGMTPGWSSFDGGKTPAVNAHGGSGGGGVSSWGGASTWGGQGNGGASAWGGAGGGASAWGGQGTGATSTWGGASAWGNKSSWGGASTWASGGESNGAMSTWGGTGDRSAYGGASTWGGNNNNKSTRDGGASAWGNQDDGNRSAWNNQGNKSNYGGNSTWGGH
B10: Spt15 (protein, UniProt P13393 1-240)
chain: MADEERLKEFKEANKIVFDPNTRQVWENQNRDGTKPATTFQSEEDIKRAAPESEKDTSATSGIVPTLQNIVATVTLGCRLDLKTVALHARNAEYNPKRFAAVIMRIREPKTTALIFASGKMVVTGAKSEDDSKLASRKYARIIQKIGFAAKFTDFKIQNIVGSCDVKFPIRLEGLAFSHGTFSSYEPELFPGLIYRMVKPKIVLLIFVSGKIVLTGAKQREEIYQAFEAIYPVLSEFRKM

Molecular target: T1, Ume6 tagged at the carboxy-terminus with TurboID (TurboID-3xMyc) (Saccharomyces cerevisiae)
Test: proximity labelling; Ume6 with C-terminal TurboID-3xMyc in living diploid SK1 cells with 50 μM biotin; rich medium (YPD, exponential) or 4 h in SPO; WT, ime1Δ and rim11Δ cells; denatured extracts, streptavidin M280 beads, on-bead trypsin digestion, label-free LC-MS/MS; enrichment against an untagged control

| binding | Binder |
| --- | --- |
| binds | B1 |
| binds | B2 |
| binds | B3 |
| binds | B4 |
| binds | B5 |
| binds | B6 |
| binds | B7 |
| binds | B8 |
| binds | B9 |
| binds | B10 |

Source: publication PMC11294583
